Experiment [1] concerns the target T1, a subunit of Thermus thermophilus V/A-ATPase (Thermus thermophilus) (UniProt Q5SIT6).
T1 sequence: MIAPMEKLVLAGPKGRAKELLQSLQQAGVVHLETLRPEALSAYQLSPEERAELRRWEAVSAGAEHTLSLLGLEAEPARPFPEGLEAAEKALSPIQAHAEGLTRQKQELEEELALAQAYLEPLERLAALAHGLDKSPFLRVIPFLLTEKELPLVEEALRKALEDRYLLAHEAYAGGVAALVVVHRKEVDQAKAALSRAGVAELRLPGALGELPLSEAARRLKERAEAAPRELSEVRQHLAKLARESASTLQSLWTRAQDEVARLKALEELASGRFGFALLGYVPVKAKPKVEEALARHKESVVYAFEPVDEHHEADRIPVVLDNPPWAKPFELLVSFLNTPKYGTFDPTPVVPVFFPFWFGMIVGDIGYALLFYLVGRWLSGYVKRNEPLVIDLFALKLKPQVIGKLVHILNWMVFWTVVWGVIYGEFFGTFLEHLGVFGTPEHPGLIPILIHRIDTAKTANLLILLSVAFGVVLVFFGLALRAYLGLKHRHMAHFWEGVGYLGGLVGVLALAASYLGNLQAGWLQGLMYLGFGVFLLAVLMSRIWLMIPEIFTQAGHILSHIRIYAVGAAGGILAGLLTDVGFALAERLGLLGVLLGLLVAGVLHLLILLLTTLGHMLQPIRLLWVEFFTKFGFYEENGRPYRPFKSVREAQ
The experiment in a line: cryo-EM structure.

Experiment [2] concerns the target T1, a subunit of Thermus thermophilus V/A-ATPase (Thermus thermophilus). The experiment in a line: cryo-EM structure. The source holds these as a separate data set.

Like-named read-outs stand apart in the source and are kept apart here. Results are given in words; binding and its absence hold for the method and conditions named. Some results given as binding are weak or reduced against the parent protein; the word gives no strength.

B1: EG peripheral stalk of Thermus thermophilus V/A-ATPase (complex, UniProt P74901 1-188; Q5SIT5 1-120)
chain 1: MSKLEAILSQEVEAEIQALLQEAEAKAEAVKREAEEKAKALLQARERALEAQYRAALRRAESAGELLVATARTQARGEVLEEVRRRVREALEALPQKPEWPEVVRKLALEALEALPGAKALVANPEDLPHLEALARERGVELQAEPALRLGVRAVGAEGKTQVENSLLARLDRAWDALSSKVAQALWG
chain 2: MTGGLVLNAISRAGGAMGGLGLIKSLAEKEKQLLERLEAAKKEAEERVKRAEAEAKALLEEAEAKAKALEAQYRERERAETEALLARYRERAEAEAKAVREKAMARLDEAVALVLKEVLP
On to B1, for which the binding entry in experiment [1] and in experiment [2] was “binds” throughout.
